# Laboratory results: the supplement of paper PMC8728848
# The list shows a part of the results.
# B1: EUL D1A second (Oryza sativa) (protein)
# chain: GAATACTIGGVPVHTVRVFSAAGEDYCLTVRNGTACLAPKNPRDDYQHWIKDMRHSNKIRDEEGYPAFALVNKVTGEAIKHSTGQGHPVKLVPYNPEYQDESVLWTESKDVGKGFRCIRMVNNIYLNFDAFHGDKDHGGIHDGTEIVLWKWCEGDNQRWKILPWILEQKLISEEDLNSAVDHHHHHH
# Columns and labels:
# Assay in all cases: glycan array binding signal (z-score within array); higher = stronger binding
# Settings in all cases: glycan notation: IUPAC condensed, linker removed
# Fuc(a1-2)Gal = target: Fuc(a1-2)Gal
# How it was run: (§1)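 From the Consortium for Functional Glycomics database, 3228 arrays were curated, keeping only those whose protein sequence was available. Binding is given as a within-array Z-score averaged across arrays sharing a protein sequence and across linkers. Negative Z-scores can be read as non-binding.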
# Fuc(a1-2)Gal(b1-3)GalNAc = target: Fuc(a1-2)Gal(b1-3)GalNAc
# How it was run: as §1
# [1] = target: Fuc(a1-2)Gal(b1-3)GalNAc(a1-3)[Fuc(a1-2)]Gal(b1-4)Glc
# How it was run: as §1
# [2] = target: Fuc(a1-2)Gal(b1-3)GalNAc(a1-3)[Fuc(a1-2)]Gal(b1-4)GlcNAc
# How it was run: as §1
# [3] = target: Fuc(a1-2)Gal(b1-3)GalNAc(b1-3)Gal
# How it was run: as §1
# [4] = target: Fuc(a1-2)Gal(b1-3)GalNAc(b1-3)Gal(a1-4)Gal(b1-4)Glc
# How it was run: as §1
# [5] = target: Fuc(a1-2)Gal(b1-3)GalNAc(b1-4)[Neu5Ac(a2-3)]Gal(b1-4)Glc
# How it was run: as §1
# Fuc(a1-2)Gal(b1-3)GlcNAc = target: Fuc(a1-2)Gal(b1-3)GlcNAc
# How it was run: as §1
# [6] = target: Fuc(a1-2)Gal(b1-3)GlcNAc(b1-2)Man(a1-3)[Fuc(a1-2)Gal(b1-3)GlcNAc(b1-2)Man(a1-6)]Man(b1-4)GlcNAc(b1-4)GlcNAc
# How it was run: as §1
# [7] = target: Fuc(a1-2)Gal(b1-3)GlcNAc(b1-2)Man(a1-3)[Fuc(a1-2)Gal(b1-3)GlcNAc(b1-2)Man(a1-6)]Man(b1-4)GlcNAc(b1-4)[Fuc(a1-6)]GlcNAc
# How it was run: as §1
# [8] = target: Fuc(a1-2)Gal(b1-3)GlcNAc(b1-3)Gal(b1-4)Glc
# How it was run: as §1
# [9] = target: Fuc(a1-2)Gal(b1-3)GlcNAc(b1-3)GalNAc
# How it was run: as §1
# [10] = target: Fuc(a1-2)Gal(b1-3)GlcNAc(b1-3)[Fuc(a1-2)Gal(b1-3)GlcNAc(b1-6)]GalNAc
# How it was run: as §1
# [11] = target: Fuc(a1-2)Gal(b1-3)GlcNAc(b1-3)[Gal(b1-4)GlcNAc(b1-6)]Gal(b1-4)Glc
# How it was run: as §1
# [12] = target: Fuc(a1-2)Gal(b1-3)GlcNAc(b1-3)[Neu5Ac(a2-6)Gal(b1-4)GlcNAc(b1-6)]Gal(b1-4)Glc
# How it was run: as §1
# [13] = target: Fuc(a1-2)Gal(b1-3)GlcNAc6S
# How it was run: as §1
# [14] = target: Fuc(a1-2)Gal(b1-3)[Fuc(a1-4)]GlcNAc
# How it was run: as §1
# [15] = target: Fuc(a1-2)Gal(b1-3)[Fuc(a1-4)]GlcNAc(b1-2)Man(a1-3)[Fuc(a1-2)Gal(b1-3)[Fuc(a1-4)]GlcNAc(b1-2)Man(a1-3)]Man(b1-4)GlcNAc(b1-4)GlcNAc
# How it was run: as §1
# [16] = target: Fuc(a1-2)Gal(b1-3)[Fuc(a1-4)]GlcNAc(b1-2)Man(a1-3)[Fuc(a1-2)Gal(b1-3)[Fuc(a1-4)]GlcNAc(b1-2)Man(a1-6)]Man(b1-4)GlcNAc(b1-4)[Fuc(a1-6)]GlcNAc(b1-4)[Fuc(a1-6)]GlcNAc
# How it was run: as §1
# [17] = target: Fuc(a1-2)Gal(b1-3)[Fuc(a1-4)]GlcNAc(b1-3)[Fuc(a1-3)[Gal(b1-4)]GlcNAc(b1-6)]Gal(b1-4)Glc
# How it was run: as §1
# [18] = target: Fuc(a1-2)Gal(b1-3)[Fuc(a1-4)]GlcNAc(b1-3)[Gal(b1-4)GlcNAc(b1-6)]Gal(b1-4)Glc
# How it was run: as §1
# Fuc(a1-2)Gal(b1-4)Glc = target: Fuc(a1-2)Gal(b1-4)Glc
# How it was run: as §1
# Fuc(a1-2)Gal(b1-4)Glc6S = target: Fuc(a1-2)Gal(b1-4)Glc6S
# How it was run: as §1
# Fuc(a1-2)Gal(b1-4)GlcNAc = target: Fuc(a1-2)Gal(b1-4)GlcNAc
# How it was run: as §1
# [19] = target: Fuc(a1-2)Gal(b1-4)GlcNAc(b1-2)Man
# How it was run: as §1
# [20] = target: Fuc(a1-2)Gal(b1-4)GlcNAc(b1-2)Man(a1-3)[Fuc(a1-2)Gal(b1-4)GlcNAc(b1-2)Man(a1-6)]Man(b1-4)GlcNAc(b1-4)GlcNAc
# How it was run: as §1
# [21] = target: Fuc(a1-2)Gal(b1-4)GlcNAc(b1-2)Man(a1-3)[Fuc(a1-2)Gal(b1-4)GlcNAc(b1-2)Man(a1-6)]Man(b1-4)GlcNAc(b1-4)[Fuc(a1-6)]GlcNAc
# How it was run: as §1
# [22] = target: Fuc(a1-2)Gal(b1-4)GlcNAc(b1-2)[Fuc(a1-2)Gal(b1-4)GlcNAc(b1-4)]Man(a1-3)[Fuc(a1-2)Gal(b1-4)GlcNAc(b1-2)Man(a1-6)]Man(b1-4)GlcNAc(b1-4)GlcNAc
# How it was run: as §1
# [23] = target: Fuc(a1-2)Gal(b1-4)GlcNAc(b1-3)Gal(b1-4)GlcNAc
# How it was run: as §1
# [24] = target: Fuc(a1-2)Gal(b1-4)GlcNAc(b1-3)Gal(b1-4)GlcNAc(b1-2)Man(a1-3)[Fuc(a1-2)Gal(b1-4)GlcNAc(b1-3)Gal(b1-4)GlcNAc(b1-2)Man(a1-6)]Man(b1-4)GlcNAc(b1-4)GlcNAc
# How it was run: as §1
binder,measurement,setting,value
B1,glycan array binding signal (z-score),Fuc(a1-2)Gal,0.91
same,glycan array binding signal (z-score),Fuc(a1-2)Gal(b1-3)GalNAc,-0.65
same,glycan array binding signal (z-score),[1],0.097
same,glycan array binding signal (z-score),[2],-0.086
same,glycan array binding signal (z-score),[3],0.641
same,glycan array binding signal (z-score),[4],-0.076
same,glycan array binding signal (z-score),[5],-0.8
same,glycan array binding signal (z-score),Fuc(a1-2)Gal(b1-3)GlcNAc,0.226
same,glycan array binding signal (z-score),[6],0.302
same,glycan array binding signal (z-score),[7],-1.13
same,glycan array binding signal (z-score),[8],-1.01
same,glycan array binding signal (z-score),[9],-0.565
same,glycan array binding signal (z-score),[10],0.473
same,glycan array binding signal (z-score),[11],0.123
same,glycan array binding signal (z-score),[12],-0.13
same,glycan array binding signal (z-score),[13],0.142
same,glycan array binding signal (z-score),[14],-0.16
same,glycan array binding signal (z-score),[15],-0.938
same,glycan array binding signal (z-score),[16],0.045
same,glycan array binding signal (z-score),[17],-1.51
same,glycan array binding signal (z-score),[18],1.09
same,glycan array binding signal (z-score),Fuc(a1-2)Gal(b1-4)Glc,-0.477
same,glycan array binding signal (z-score),Fuc(a1-2)Gal(b1-4)Glc6S,1.58
same,glycan array binding signal (z-score),Fuc(a1-2)Gal(b1-4)GlcNAc,0.021
same,glycan array binding signal (z-score),[19],-0.464
same,glycan array binding signal (z-score),[20],0.721
same,glycan array binding signal (z-score),[21],-1.11
same,glycan array binding signal (z-score),[22],-0.771
same,glycan array binding signal (z-score),[23],-1.23
same,glycan array binding signal (z-score),[24],0.828

# Pulled one by one from above:
binder,measurement,setting,value
B1,glycan array binding signal (z-score),Fuc(a1-2)Gal(b1-4)Glc6S,1.58
same,glycan array binding signal (z-score),Fuc(a1-2)Gal(b1-4)GlcNAc,0.021
